Measurements taken from article PMC11399425, “Tricyclic and tetracyclic antidepressants upregulate VMAT2 activity and rescue disease-causing VMAT2 variants” (Neuropsychopharmacology, 2024).

Experiments:
VMAT2 [1] = target: T1, VMAT2 (Mus musculus, UniProt Q8BRU6); assay: FFN206 uptake upregulation assay (18-h treatment, washout) in HEK-VMAT2 cells; type: cell-based; parameters: The full-length mouse and human SLC18A2 cDNAs encoding VMAT2 were cloned into pcDNA3.1 vectors; expressed in transfected cells; settings: 18 h treatment followed by washout, read-out: EC50 (95% CI), VMAT2 upregulation
VMAT2 [2] = target: T1, VMAT2; assay: FFN206 uptake inhibition assay (30-min treatment) in HEK-VMAT2 cells

| SMILES | EC50 (VMAT2 [1]) | IC50 (VMAT2 [2]) |
| --- | --- | --- |
| Clc1ccc2c(c1)C(N1CCNCC1)=Nc1ccccc1O2 [AMO, Amoxapine] | 18.5 µM | 7.79 µM |
| CN(C)CCC=C1c2ccccc2COc2ccccc21 [DOX, Doxepin] | 42.4 µM | 30.5 µM |
